Laboratory results taken from doi:10.1101/2022.10.01.510475.
No constants are given. Whether binding was seen depends on the method and setting. Binding seen in cells or lysates may run through a third protein. Some binding calls cover weakened binding; strength is not graded here.

By UniProt entry, the sequences of proteins in these tests, tags left out.
UniProt O08788: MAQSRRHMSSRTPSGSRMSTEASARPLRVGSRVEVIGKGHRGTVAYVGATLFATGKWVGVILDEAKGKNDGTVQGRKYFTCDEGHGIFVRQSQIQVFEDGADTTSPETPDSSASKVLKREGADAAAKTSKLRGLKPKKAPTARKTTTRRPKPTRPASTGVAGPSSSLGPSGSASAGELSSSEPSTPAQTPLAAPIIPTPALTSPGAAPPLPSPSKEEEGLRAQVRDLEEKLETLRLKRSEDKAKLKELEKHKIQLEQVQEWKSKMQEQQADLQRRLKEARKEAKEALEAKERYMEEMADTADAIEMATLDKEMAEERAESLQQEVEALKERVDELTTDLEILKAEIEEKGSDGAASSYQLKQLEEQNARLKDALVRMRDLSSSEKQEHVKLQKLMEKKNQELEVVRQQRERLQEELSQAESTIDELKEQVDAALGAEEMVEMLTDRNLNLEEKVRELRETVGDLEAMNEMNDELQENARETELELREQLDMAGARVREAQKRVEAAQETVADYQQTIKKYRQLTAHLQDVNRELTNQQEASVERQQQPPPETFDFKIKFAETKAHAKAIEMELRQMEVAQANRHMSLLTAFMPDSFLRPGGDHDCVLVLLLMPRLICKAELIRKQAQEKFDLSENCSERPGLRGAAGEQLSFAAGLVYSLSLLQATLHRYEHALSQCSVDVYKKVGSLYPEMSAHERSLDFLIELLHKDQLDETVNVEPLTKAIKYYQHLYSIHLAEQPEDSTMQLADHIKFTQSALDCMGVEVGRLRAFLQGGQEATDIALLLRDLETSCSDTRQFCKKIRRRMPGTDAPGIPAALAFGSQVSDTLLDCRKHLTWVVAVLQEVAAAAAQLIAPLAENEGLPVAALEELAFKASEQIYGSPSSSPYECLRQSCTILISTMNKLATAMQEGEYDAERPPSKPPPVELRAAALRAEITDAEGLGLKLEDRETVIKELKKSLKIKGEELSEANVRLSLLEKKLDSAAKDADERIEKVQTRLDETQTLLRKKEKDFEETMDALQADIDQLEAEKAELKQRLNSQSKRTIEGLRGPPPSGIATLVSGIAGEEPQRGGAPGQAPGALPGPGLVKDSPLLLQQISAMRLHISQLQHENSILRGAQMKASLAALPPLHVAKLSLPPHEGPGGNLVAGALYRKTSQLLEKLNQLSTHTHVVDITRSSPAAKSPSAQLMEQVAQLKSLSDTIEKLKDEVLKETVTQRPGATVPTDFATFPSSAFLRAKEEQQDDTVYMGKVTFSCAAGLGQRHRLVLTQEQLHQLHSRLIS
UniProt P63168: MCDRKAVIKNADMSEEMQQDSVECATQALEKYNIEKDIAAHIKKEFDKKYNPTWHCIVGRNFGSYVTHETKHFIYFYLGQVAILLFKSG

Key:
[1] = molecular target: T1, nephrin (endogenous, mouse glomeruli) (mouse (endogenous in glomeruli of C57BL/6J mice)) (UniProt Q9QZS7); experiment: co-IP
T1 sequence: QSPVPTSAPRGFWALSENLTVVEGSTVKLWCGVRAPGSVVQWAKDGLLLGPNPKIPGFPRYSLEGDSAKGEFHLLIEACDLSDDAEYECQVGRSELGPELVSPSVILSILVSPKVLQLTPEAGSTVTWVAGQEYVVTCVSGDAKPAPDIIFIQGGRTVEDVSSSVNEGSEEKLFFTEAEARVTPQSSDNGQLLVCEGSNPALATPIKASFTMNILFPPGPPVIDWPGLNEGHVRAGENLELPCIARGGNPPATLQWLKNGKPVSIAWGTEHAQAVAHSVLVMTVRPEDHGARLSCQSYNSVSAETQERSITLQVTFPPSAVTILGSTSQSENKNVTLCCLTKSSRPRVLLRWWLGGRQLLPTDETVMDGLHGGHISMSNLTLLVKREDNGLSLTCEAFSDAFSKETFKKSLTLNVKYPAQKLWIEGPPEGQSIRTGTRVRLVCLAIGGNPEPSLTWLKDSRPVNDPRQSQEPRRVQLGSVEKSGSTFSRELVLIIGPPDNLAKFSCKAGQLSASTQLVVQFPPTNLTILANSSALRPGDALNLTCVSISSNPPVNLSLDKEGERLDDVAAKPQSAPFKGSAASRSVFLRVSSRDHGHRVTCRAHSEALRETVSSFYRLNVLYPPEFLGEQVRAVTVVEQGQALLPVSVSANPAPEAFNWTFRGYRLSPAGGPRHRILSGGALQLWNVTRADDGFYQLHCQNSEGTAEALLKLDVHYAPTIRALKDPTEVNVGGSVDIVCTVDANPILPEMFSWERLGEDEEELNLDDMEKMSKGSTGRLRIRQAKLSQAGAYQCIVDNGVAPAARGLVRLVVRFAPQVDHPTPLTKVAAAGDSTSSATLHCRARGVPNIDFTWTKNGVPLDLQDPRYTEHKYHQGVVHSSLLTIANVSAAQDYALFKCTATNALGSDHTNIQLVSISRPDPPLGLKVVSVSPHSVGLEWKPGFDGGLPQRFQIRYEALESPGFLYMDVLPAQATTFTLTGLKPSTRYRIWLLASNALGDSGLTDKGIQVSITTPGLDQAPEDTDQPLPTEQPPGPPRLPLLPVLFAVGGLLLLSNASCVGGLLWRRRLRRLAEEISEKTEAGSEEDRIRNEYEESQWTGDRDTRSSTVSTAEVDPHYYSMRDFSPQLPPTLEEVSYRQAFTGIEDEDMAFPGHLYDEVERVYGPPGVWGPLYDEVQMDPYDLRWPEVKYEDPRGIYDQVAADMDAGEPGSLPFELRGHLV

[2] = molecular target: T2, nephrin (expressed from the pcDNA3-nephrin plasmid in cultured mouse podocytes, crosslinked and endocytosed) (UniProt Q9QZS7); experiment: co-IP
T2 sequence: T1 sequence

Row | Substance | binding [1] | binding [2]
1 | DCTN1 (dynactin subunit 1) (from UniProt O08788 1-1281) | binds | binds
2 | Dynll1 (dynein light chain LC8-type 1) (from UniProt P63168 1-89) | binds | binds
